Test results from patent US12035717B1, “2-OXO-2-({2-[(phenylcarbamoyl)oxy]ethyl} amino)ethyl phenylcarbamate as an eco-friendly insecticidal agent against spodoptera littoralis (boisd.)” (priority 2024, dated 2024).

System: Spodoptera littoralis larvae (laboratory strain of cotton leafworm)
Assay: Insecticidal leaf dip bioassay on S. littoralis larvae
Conditions: 72 hours, probit (LDP-line) slope

Structure (SMILES)	Slope (2nd instar larvae)	Slope (4th instar larvae)
O=C(COC(=O)Nc1ccccc1)NCCOC(=O)Nc1ccccc1 [Compound 2, 2-oxo-2-({2-[(phenylcarbamoyl)oxy]ethyl}amino)ethyl phenylcarbamate]	0.198 ± 0.0852	0.232 ± 0.0880
CCOC(=O)NCCOc1ccc(Oc2ccccc2)cc1 [Fenoxycarb, reference compound]	0.298 ± 0.0808	0.225 ± 0.0870
